Patent publication US9499511B2, “N-substituted hydroxylamine derivatives with carbon-based leaving groups” (The Johns Hopkins University, priority 2011, dated 2016)

Assay: Decomposition monitored by 1H NMR spectroscopy (carbanion yield, kinetics, half-life)
Type: physicochemical
Details: yields of carbanions 1b-4b, 6b by 1H NMR spectroscopy
Description: […] In each case, the bottom spectrum was collected at the start of the experiment, and the top spectrum after complete decomposition.
NMR spectra were obtained on a Bruker Avance 400 MHz FT-NMR spectrometer. […] High-resolution mass spectra were obtained on a VG Analytical VG70SE magnetic sector mass spectrometer operating in fast atom bombardment (FAB) mode. […]

Row | Structure (SMILES) | % Carbanion
1 | CO/N=C(\C)C1(NO)C(=O)OC(C)(C)OC1=O [Compound 2a, 5-(N-hydroxylamine)-5-(acetyl-O-methoxyoxime)-Meldrum's acid] | 34^d %
2 | CO/N=C(\C)C1(NO)C(=O)N(c2ccccc2)N=C1C (centres unmarked) [Compound 6a, 4-(N-hydroxylamine)-4-(acetyl-O-methoxyoxime)-N-phenyl-5-methyl-pyrazolone] | >95%
3 | CO/N=C(\C)C1(NO)C(=O)N(C)C(=O)N(C)C1=O [Compound 4a, 5-(N-hydroxylamine)-5-(acetyl-O-methoxyoxime)-N,N-dimethylbarbituric acid] | >95%
4 | CC1(C)OC(=O)C(C)(NO)C(=O)O1 [Compound 1a, 5-(N-hydroxylamine)-5-methyl-Meldrum's acid hydrochloride monohydrate] | 4^d %
5 | CCC1(NO)C(=O)N(C)C(=O)N(C)C1=O [Compound 3a, 5-(N-hydroxylamine)-5-ethyl-N,N-dimethylbarbituric acid hydrochloride] | 6^e %

Where a name gives a salt, the structure may show the parent alone. Marks after values point to notes of the source that are not given here.
